Some of these results come from one statement about several compounds together.
System: Myzus persicae
Assay: Test of control effect on Myzus persicae (foliar application to potted Chinese cabbage)
Assay type: in vivo
Details: 500 ppm dispersion in water, foliar application to potted Chinese cabbage plants, green peach aphids counted at 6 days after application

SMILES	control effect (control rate)
CCS(=O)(=O)c1cc(C=NO)cnc1-c1nc2cc(C(F)(F)F)cnc2n1C [Compound 2-3]	A (the control rate is 100%.)
CCS(=O)(=O)c1cc(C=NOCC(F)(F)F)cnc1-c1nc2cc(C(F)(F)F)cnc2n1C [Compound 2-33]	A (the control rate is 100%.)
CCS(=O)(=O)c1ccc(C=NOCC(F)(F)F)nc1-c1nc2cc(C(F)(F)F)nnc2n1C [Compound 3-2]	A (the control rate is 100%.)
CCS(=O)(=O)c1cc(/C=N/O)cnc1-c1nc2cc(SC(F)(F)F)ccc2o1 [Compound 4-11]	A (the control rate is 100%.)
CCS(=O)(=O)c1cc(/C=N/OCC(F)(F)F)cnc1-c1nc2cc(SC(F)(F)F)ccc2o1 [Compound 4-12]	A (the control rate is 100%.)

Reference: patent publication US11787809B2 (NIHON NOHYAKU CO., LTD., priority 2015, dated 2023)
